# In ChEMBL document CHEMBL4316593 (Eur J Med Chem, 2019):
# The source gives many values for each of these; only a part stands here.
# Legend:
# Assay type in all cases: cell-based
# Conditions in all cases: U-87MG ATCC
# [1] = Inhibition of RTK/PI3K/AKT/mTOR signaling in human U87 cells assessed as down regulation of NUP214 gene expression at cytotoxic IC50 measured after 48 hrs relative to control
# [2] = Inhibition of RTK/PI3K/AKT/mTOR signaling in human U87 cells assessed as up regulation of mex-3 RNA binding family member A gene expression at cytotoxic IC50 measured after 48 hrs relative to control
# [3] = Inhibition of RTK/PI3K/AKT/mTOR signaling in human U87 cells assessed as down regulation of SHCBP1 gene expression at cytotoxic IC50 measured after 48 hrs relative to control
# [4] = Inhibition of RTK/PI3K/AKT/mTOR signaling in human U87 cells assessed as down regulation of EZH2 gene expression at cytotoxic IC50 measured after 48 hrs relative to control
# [5] = Inhibition of RTK/PI3K/AKT/mTOR signaling in human U87 cells assessed as up regulation of WD repeat domain 43 gene expression at cytotoxic IC50 measured after 48 hrs relative to control
# [6] = Inhibition of RTK/PI3K/AKT/mTOR signaling in human U87 cells assessed as up regulation of lon peptidase 1, mitochondrial gene expression at cytotoxic IC50 measured after 48 hrs relative to control
# [7] = Inhibition of RTK/PI3K/AKT/mTOR signaling in human U87 cells assessed as down regulation of SRP14 gene expression at cytotoxic IC50 measured after 48 hrs relative to control
# [8] = Inhibition of RTK/PI3K/AKT/mTOR signaling in human U87 cells assessed as down regulation of SVIP gene expression at cytotoxic IC50 measured after 48 hrs relative to control
# [9] = Inhibition of RTK/PI3K/AKT/mTOR signaling in human U87 cells assessed as down regulation of CCDC174 gene expression at cytotoxic IC50 measured after 48 hrs relative to control
# [10] = Inhibition of RTK/PI3K/AKT/mTOR signaling in human U87 cells assessed as down regulation of NUP37 gene expression at cytotoxic IC50 measured after 48 hrs relative to control
# [11] = Inhibition of RTK/PI3K/AKT/mTOR signaling in human U87 cells assessed as down regulation of NCAPD3 gene expression at cytotoxic IC50 measured after 48 hrs relative to control
# [12] = Inhibition of RTK/PI3K/AKT/mTOR signaling in human U87 cells assessed as down regulation of BICDL1 gene expression at cytotoxic IC50 measured after 48 hrs relative to control
# [13] = Inhibition of RTK/PI3K/AKT/mTOR signaling in human U87 cells assessed as down regulation of MAP4K4 gene expression at cytotoxic IC50 measured after 48 hrs relative to control
# [14] = Inhibition of RTK/PI3K/AKT/mTOR signaling in human U87 cells assessed as down regulation of POLB gene expression at cytotoxic IC50 measured after 48 hrs relative to control
# [15] = Inhibition of RTK/PI3K/AKT/mTOR signaling in human U87 cells assessed as up regulation of B3GALT5 gene expression at cytotoxic IC50 measured after 48 hrs relative to control
# [16] = Inhibition of RTK/PI3K/AKT/mTOR signaling in human U87 cells assessed as up regulation of chromosome 16 open reading frame 45 gene expression at cytotoxic IC50 measured after 48 hrs relative to control
# [17] = Inhibition of RTK/PI3K/AKT/mTOR signaling in human U87 cells assessed as up regulation of B3GALT6 gene expression at cytotoxic IC50 measured after 48 hrs relative to control
# [18] = Inhibition of RTK/PI3K/AKT/mTOR signaling in human U87 cells assessed as up regulation of snurportin 1 gene expression at cytotoxic IC50 measured after 48 hrs relative to control
# [19] = Inhibition of RTK/PI3K/AKT/mTOR signaling in human U87 cells assessed as down regulation of PSMD1 gene expression at cytotoxic IC50 measured after 48 hrs relative to control
# [20] = Inhibition of RTK/PI3K/AKT/mTOR signaling in human U87 cells assessed as up regulation of prolyl 3-hydroxylase family member 4 (non-enzymatic) gene expression at cytotoxic IC50 measured after 48 hrs relative to control
# [21] = Inhibition of RTK/PI3K/AKT/mTOR signaling in human U87 cells assessed as up regulation of TRPV6 gene expression at cytotoxic IC50 measured after 48 hrs relative to control
# [22] = Inhibition of RTK/PI3K/AKT/mTOR signaling in human U87 cells assessed as down regulation of ST14 gene expression at cytotoxic IC50 measured after 48 hrs relative to control
# [23] = Inhibition of RTK/PI3K/AKT/mTOR signaling in human U87 cells assessed as up regulation of damage specific DNA binding protein 2 gene expression at cytotoxic IC50 measured after 48 hrs relative to control
# [24] = Inhibition of RTK/PI3K/AKT/mTOR signaling in human U87 cells assessed as down regulation of SAMD4A gene expression at cytotoxic IC50 measured after 48 hrs relative to control
# [25] = Inhibition of RTK/PI3K/AKT/mTOR signaling in human U87 cells assessed as up regulation of MALT1 gene expression at cytotoxic IC50 measured after 48 hrs relative to control
# [26] = Inhibition of RTK/PI3K/AKT/mTOR signaling in human U87 cells assessed as up regulation of F2R gene expression at cytotoxic IC50 measured after 48 hrs relative to control
# [27] = Inhibition of RTK/PI3K/AKT/mTOR signaling in human U87 cells assessed as down regulation of PSMA7 gene expression at cytotoxic IC50 measured after 48 hrs relative to control
# [28] = Inhibition of RTK/PI3K/AKT/mTOR signaling in human U87 cells assessed as up regulation of FBLIM1 gene expression at cytotoxic IC50 measured after 48 hrs relative to control
# [29] = Inhibition of RTK/PI3K/AKT/mTOR signaling in human U87 cells assessed as down regulation of NAV3 gene expression at cytotoxic IC50 measured after 48 hrs relative to control
# [30] = Inhibition of RTK/PI3K/AKT/mTOR signaling in human U87 cells assessed as down regulation of PPP1R12A gene expression at cytotoxic IC50 measured after 48 hrs relative to control
# [31] = Inhibition of RTK/PI3K/AKT/mTOR signaling in human U87 cells assessed as down regulation of GINM1 gene expression at cytotoxic IC50 measured after 48 hrs relative to control
# [32] = Inhibition of RTK/PI3K/AKT/mTOR signaling in human U87 cells assessed as up regulation of PFKFB4 gene expression at cytotoxic IC50 measured after 48 hrs relative to control
smiles,measurement,setting,value
CC(=O)C(=NNc1ccccc1C#N)C(C)=O,log2FC,[1],-0.573
same,log2FC,[2],1.51
same,log2FC,[3],-1.07
same,log2FC,[4],-0.518
same,log2FC,[5],1.01
same,log2FC,[6],1.25
same,log2FC,[7],-0.486
same,log2FC,[8],-1.98
same,log2FC,[9],-1.05
same,log2FC,[10],-0.716
same,log2FC,[11],-1
same,log2FC,[12],-1.34
same,log2FC,[13],-0.598
same,log2FC,[14],-0.827
same,log2FC,[15],2.92
same,log2FC,[16],1.16
same,log2FC,[17],1.8
same,log2FC,[18],1.18
same,log2FC,[19],-1.04
same,log2FC,[20],1.07
same,log2FC,[21],2.88
same,log2FC,[22],-0.535
same,log2FC,[23],1.15
same,log2FC,[24],-1.58
same,log2FC,[25],1.91
same,log2FC,[26],1.78
same,log2FC,[27],-0.949
same,log2FC,[28],3.31
same,log2FC,[29],-1.66
same,log2FC,[30],-0.648
same,log2FC,[31],-0.572
same,log2FC,[32],2.75
